# Test results as given in PubChem BioAssay AID1347076 (National Center for Advancing Translational Sciences (NCATS), 2019).
# Among all 400,000 compounds or so, about 13,000 (3.2%) were called active. The shares of active, inactive and inconclusive entries below differ from those in the screen. Calls come from the whole dose curve; as a rule, active = well fitted cell-killing curve with a large enough effect; inconclusive = small, poorly fitted or top-dose-only effect, or effect the other way; inactive = flat fitted curve, though single readings scatter. Potencies beside an inconclusive call are fits to weak or partial responses and may not hold up.
# Assay: qHTS assay for MDR1-selective chemotherapeutics: Primary screen using the drug-selected MDR subline cells KB-V1; note: nearly all actives have a fitted effect of over 60% in size
# Conditions: KB-V1 MDR cells viability, CellTiter-Glo, 72 h; activity change, negative = cytotoxicity: at 46.1 µM (top of the series)
# Procedure, shortened: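 KB-V1 cells (P-gp-expressing MDR subline of KB-3-1) in phenol-red-free DMEM with 10% FBS were exposed to library compounds over a concentration series for 72 h at 37 degrees C. Viability read by CellTiter-Glo luminescence; concentration-effect curves fitted after normalization.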
# % is set by controls: 0 for no effect and ±100 for the full control effect; potency is the fitted concentration of half-maximal effect.
Compound,Potency,"activity change, negative = cytotoxicity"
Cc1cccc(C(C(=O)NC2CCCC2)N(C(=O)c2csnn2)C2CC2)c1 (stereo unspecified),inactive,–
Cc1ccccc1Cn1cc(S(=O)(=O)CC(=O)Nc2nccs2)c2ccccc21,active: 16.4 µM,–
Cc1cc(SCc2ccc([N+](=O)[O-])cc2)nc(=O)[nH]1,inactive,–
Cc1cc(C)c(NC(=O)CSc2nnc(CN3CCOCC3)n2C)c(C)c1,inactive,–
COc1ccc2oc(=O)c(/C(C)=N/NC(=O)c3ccncc3)cc2c1,–,inconclusive: -77.5%
CCOc1ccc(/C=C/C(=O)OC(C)C(=O)NC2CCCCC2C)cc1OC (stereo unspecified),"inconclusive: 4.61 µM [cytotoxic, partial curve, poor fit]",–
OCC(O)CNC(=S)NC1CCCCC1 (stereo unspecified),inactive,–
Cc1cc(Cl)ccc1OCCCC(=O)NCCc1nnc2ccccn12,"inconclusive: 14.6 µM [cytotoxic, partial curve, poor fit]",–
COC/C=C/C1=CC2=CC(=O)C(C)(OC(=O)c3cnc4ccccc4n3)C(=O)C2=CN1CCCCO (stereo unspecified),"inconclusive: 29.1 µM [rising, single point]",–
Cc1cc(C)c(NC(=O)CSc2ccc(-c3ccccn3)nn2)c(C)c1,"inconclusive: 8.2 µM [cytotoxic, partial curve]",–
COc1ccc(C2=Nc3ccccc3NC(c3cccs3)=N2)cc1,inactive,–
Cc1ccc(-n2c3c(cc(C(=O)Nc4ccccc4C(N)=O)c2=O)C(=O)CC(C)(C)C3)cc1,–,inconclusive: 36.4%
CCN(CC)CCCNC(=O)c1ccc(C)c(NC(=O)C2=C(C)OCCS2)c1,"inconclusive: 7.31 µM [rising, partial curve]",–
CC(C(=O)N1CCN(Cc2ccc3c(c2)OCO3)CC1)c1ccc([N+](=O)[O-])cc1 (stereo unspecified),"inconclusive: 16.4 µM [cytotoxic, partial curve, poor fit]",–
COc1ccc(Nc2nc(N)nc(CN3CCC(C)CC3)n2)cc1,inactive,–
CCC(c1nnc(SC(C)C(=O)NC2CC2)n1-c1ccc(OC)cc1)N(C)C (stereo unspecified),"inconclusive: 16.4 µM [cytotoxic, partial curve, poor fit]",–
COc1ccc(OCC(=O)c2c(O)c3ccccc3oc2=O)cc1,active: 20.6 µM,–
Cc1ccc(S(=O)(=O)N2CCN(c3ncnc4scc(-c5ccccc5)c34)CC2)cc1,active: 7.31 µM,–
CC(C)(CNC(=O)c1ccc(S(=O)(=O)Nc2ccccc2F)cc1)N1CCOCC1,"inconclusive: 32.6 µM [cytotoxic, partial curve, poor fit]",–
C=CCNC(=O)Nc1ccc(Cl)cn1,"inconclusive: 29.1 µM [rising, single point]",–
COc1ccccc1NC(=O)c1ccccc1SCC(=O)N1CCCC1,"inconclusive: 16.4 µM [cytotoxic, partial curve]",–
O=C(O)C(c1ccccc1)N1C(=O)/C(=C\c2ccc(-c3ccccc3Cl)o2)SC1=S (stereo unspecified),"inconclusive: 29.1 µM [rising, single point]",–
O=C1CC(c2ccccc2)Sc2ccccc2N1Cc1ccc(F)cc1 (stereo unspecified),"inconclusive: 14.6 µM [cytotoxic, partial curve]",–
COc1ccc(Nc2nc(-c3cccnc3)cs2)c(OC)c1,"inconclusive: 18.4 µM [cytotoxic, partial curve]",–

Compound,Potency,"activity change, negative = cytotoxicity"
COC(=O)c1cnc2c(c1C(=O)OC)c(=O)n(C)c(=O)n2C,"inconclusive: 18.4 µM [cytotoxic, single point]",–
COc1ccc(C(CNC(=O)Cc2ccccc2)N2CCCCC2)cc1 (stereo unspecified),"inconclusive: 9.2 µM [cytotoxic, partial curve]",–
COc1cccc(CCNC(=O)c2c(O)nc3c(C)cccn3c2=O)c1,"inconclusive: 29.1 µM [cytotoxic, single point]",–
CC(C)OC(=O)N(C)C[C@@H]1OCc2cnnn2CCCC(=O)N([C@@H](C)CO)C[C@H]1C,inactive,–
COc1ccc2nc(SCC(=O)NCc3ccccc3)[nH]c2c1,inactive,–
Fc1cccc(CCN2C(=S)NC[C@@H]2Cc2ccccc2)c1,inactive,–
CC(C)c1cccc(-c2ccc3c(c2)S(=O)(=O)c2cccc(C(=O)NCc4ccccc4)c2C3=O)c1,"inconclusive: 29.1 µM [cytotoxic, single point]",–
CC(C)(C)NC(=O)Cn1c(=O)n(CC(=O)NC(C)(C)C)c2ccccc21,"inconclusive: 32.6 µM [rising, single point]",–
CCN(CC(=O)Nc1ccc(C(C)=O)cc1)CC(=O)Nc1cccc(OC)c1,"inconclusive: 23.1 µM [cytotoxic, single point]",–
CCN1CCN(c2ccc(S(=O)(=O)N3CCOCC3)cc2NC(=O)c2cc(Cl)nc3ccccc23)CC1,"inconclusive: 16.4 µM [cytotoxic, single point]",–
Cc1cc2ccc(C)c(C)c2nc1SCC#N,"inconclusive: 23.1 µM [cytotoxic, single point]",–
O=C(Nc1cccc(S(=O)(=O)N2CCCCC2)c1)c1cc(=O)[nH]c2ccccc12,"inconclusive: 16.4 µM [cytotoxic, partial curve]",–
O=S(=O)(c1ccc(N2CC=C(c3ccccc3)CC2)nc1)N1CCCC1,active: 8.2 µM,–
Cc1cc(C)cc(C(=O)N2CCN(c3ccccn3)CC2)c1,"inconclusive: 29.1 µM [rising, partial curve, poor fit]",–
Cc1nc2ccn(Cc3ccccc3)c(=O)c2cc1C(=O)N1CCN(c2ccc(F)cc2)CC1,inactive,–
c1ccc2sc(Sc3ncnc4sccc34)nc2c1,inactive,–
COc1ccc2cc(CCNC(=O)C3CC3)c(=O)[nH]c2c1,"inconclusive: 18.4 µM [cytotoxic, partial curve, poor fit]",–
COc1ccc(-n2nc(C(=O)NCC(=O)N3CCCCC3)c3ccccc3c2=O)c(OC)c1,inactive,–
COc1ccc(S(=O)(=O)Nc2cc3c4c(c2)CC(=O)N4CCC3)cc1OC,inactive,–
CC(=O)n1cc([C@H]2C=C(C(=O)N3CCN(Cc4ccc5c(c4)OCO5)CC3)O[C@@H](OCCCCO)C2)c2ccccc21,inactive,–
O=C(NC1CCCCCC1)C1CCN(C(=O)c2ccc(Cl)cc2)CC1,active: 14.6 µM,–
COC(=O)c1c(NC(=O)COC(=O)[C@@H](NS(=O)(=O)c2ccccc2)C(C)C)sc2c1CCC2,active: 14.6 µM,–
CC(C)C[C@H]1CN(CCCC[C@H]2CNC(=O)C(=O)N2CCc2ccccc2)C(=O)C(=O)N1CCc1ccc(O)cc1,"inconclusive: 25.9 µM [rising, single point]",–
N#C/C(=C(/O)c1ccc([N+](=O)[O-])s1)c1nc2ccccc2[nH]1,inactive,–

Compound,Potency,"activity change, negative = cytotoxicity"
COc1ccc(/C=N/Nc2cc(N(C)C)nc(N(C)C)n2)cc1,"inconclusive: 29.1 µM [cytotoxic, single point]",–
Cc1c(C(=O)O)sc(=S)n1-c1ccc(Cl)cc1,–,inconclusive: 32.5%
CC(=O)Nc1cc2nc(C)n(Cc3ccccc3[N+](=O)[O-])c2nc1C,"inconclusive: 10.3 µM [rising, partial curve]",–
O=C(Cc1ccccc1Cl)N/N=C/c1cccnc1,"inconclusive: 6.51 µM [rising, partial curve, poor fit]",–
COc1ccc(-c2csc(NC(=O)c3ccc(OCC(=O)N4CCOCC4)c(OC)c3)n2)cc1OC,"inconclusive: 29.1 µM [cytotoxic, single point]",–
CCC(Sc1nnc2c3ccccc3n(CC)c2n1)C(=O)Nc1nnc(C(C)C)s1 (stereo unspecified),inactive,–
CCn1c(COc2ccccc2C)nnc1SCC(=O)CC(=O)Nc1ccccc1OC,active: 8.2 µM,–
CCN1C(=O)[C@H]2[C@@H](c3ccc(-c4ccccc4)c(OC)c3)N[C@@](CC(C)C)(C(=O)OC)[C@H]2C1=O,"inconclusive: 9.2 µM [cytotoxic, partial curve, poor fit]",–
CCN1C(=O)[C@@H]2[C@@H](c3ccc(-c4ccc5c(c4)OCO5)c(OC)c3)N3CCC[C@@]3(C(=O)OC)[C@@H]2C1=O,inactive,–
COc1ccccc1NC(=O)N1CCCC(C(=O)Nc2cccc(C)c2C)C1 (stereo unspecified),inactive,–
CCN(CC(=O)Nc1cc(Cl)ccc1C)C(=O)C1CCCCC1,"inconclusive: 18.4 µM [cytotoxic, single point]",–
CCCc1ccc(S(=O)(=O)Nc2ccc(C)c(NS(C)(=O)=O)c2)cc1,"inconclusive: 20.6 µM [cytotoxic, single point]",–
CN(C)c1ccc(NC(=O)Nc2ccc3c(c2)nnn3C)cc1,inactive,–
CCCCN1CC(c2nc3ccccc3n2CCCCOc2cccc(C)c2C)CC1=O (stereo unspecified),active: 18.4 µM,–
CCCN1CCN(CCCNC(=O)c2ccc3nc(Cc4ccccc4)oc3c2)CC1,"inconclusive: 13 µM [cytotoxic, partial curve, poor fit]",–
CCS(=O)(=O)N1Cc2ccccc2CC1C(=O)Nc1nnc(SCc2ccc(F)cc2)s1 (stereo unspecified),active: 4.11 µM,–
Cc1ccc(S(=O)(=O)N2CCCC2CNC(=O)C(=O)NCc2cccs2)cc1 (stereo unspecified),active: 13 µM,–
CCOC(=O)c1ccc(NC(=O)NCc2ccn(CC)n2)cc1,"inconclusive: 23.1 µM [cytotoxic, single point]",–
O=C(c1ccc(N2CCN(S(=O)(=O)c3ccccc3)CC2)c([N+](=O)[O-])c1)N1CCOCC1,active: 3.66 µM,–
COc1ccc(NC(=O)CN2CCN(S(=O)(=O)c3ccc(Cl)cc3)CC2)cc1,active: 16.4 µM,–
CC(=O)c1sc2c(c1N)c(=O)[nH]c(=O)n2-c1ccccc1,"inconclusive: 10.3 µM [rising, partial curve]",–
COc1cc(NC(=O)C2CCCCC2)c(OC)cc1NC(=O)c1ccco1,inactive,–
COc1cc(CNC2CCCCCCC2)cc(Br)c1OCC#N,active: 23.1 µM,–

# Given bar-delimited: entries from further up
Compound | Potency | activity change, negative = cytotoxicity
Cc1cccc(C(C(=O)NC2CCCC2)N(C(=O)c2csnn2)C2CC2)c1 (stereo unspecified) | inactive | –
COc1ccccc1NC(=O)c1ccccc1SCC(=O)N1CCCC1 | inconclusive: 16.4 µM [cytotoxic, partial curve] | –
CC(C)OC(=O)N(C)C[C@@H]1OCc2cnnn2CCCC(=O)N([C@@H](C)CO)C[C@H]1C | inactive | –
c1ccc2sc(Sc3ncnc4sccc34)nc2c1 | inactive | –
COC(=O)c1c(NC(=O)COC(=O)[C@@H](NS(=O)(=O)c2ccccc2)C(C)C)sc2c1CCC2 | active: 14.6 µM | –
CCN(CC(=O)Nc1cc(Cl)ccc1C)C(=O)C1CCCCC1 | inconclusive: 18.4 µM [cytotoxic, single point] | –
